# According to PubChem BioAssay AID1487 (National Center for Advancing Translational Sciences (NCATS), 2009):
# Some of the results follow. Further columns of the screen follow, without active or inactive calls. Compounds called inactive in the main read-out are mostly missing here. Potencies come from curve fits of mixed quality, noted in brackets.
# Experiment: qHTS Assay for Modulators of Lamin A Splicing
# Conditions: HeLa LMNA splicing GFP/RFP minigene ratio, 48 h
# Method in brief: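 S3 HeLa cells stably expressing lamin A-EGFP splicing minigene plus DsRed2, 600 cells/well, 48 h compound exposure at 37C. Laser-scanning cytometry; analysed as GFP (500-530 nm)/RFP (575-640 nm) total intensity ratio; 0.5% DMSO vehicle.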
# [1] = measured here: GFP splicing reporter channel
# [2] = measured here: RFP viability control channel
compound,measurement,setting,value
CCOC(=O)C1=C(Nc2ccccc2)CC(C)(O)C(C(=O)OCC)C1c1ccc(Br)cc1 (stereo unspecified),AC50,[1],"31.6 µM [rising, single point]"
COC(=O)c1ccc(/C=N\NC(=O)c2ccc(C)cc2Cl)cc1,AC50,[1],"11.2 µM [rising, partial curve]"
COc1ccc(-c2cc(-c3nnc(COC(=O)C4CC4)o3)c3ccccc3n2)cc1OC,AC50,[2],"12.6 µM [rising, single point]"
COc1ccc(-c2cc(C(F)(F)F)n3ncc(C(=O)Nc4c(C)n(C)n(-c5ccccc5)c4=O)c3n2)cc1,AC50,[2],"0.794 µM [falling, full curve, poor fit]"
Cc1cccc(Nc2ccccc2C(=O)O)c1C,AC50,[1],"1.26 µM [falling, full curve, poor fit]"
Cc1ccc(NC(=O)c2nn(C34CC5CC(CC(C5)C3)C4)cc2[N+](=O)[O-])cc1,AC50,[1],"7.08 µM [rising, partial curve, poor fit]"
same,AC50,[2],"11.2 µM [rising, partial curve]"
COc1ccccc1NCc1cccn1-c1nnc(N2CCCCCC2)s1,AC50,[1],"0.562 µM [falling, partial curve, poor fit]"
O=C(/C=C\Nc1ccc2c(c1)OCO2)c1cccs1,AC50,[1],"0.0447 µM [rising, full curve, poor fit]"
same,AC50,[2],"0.0891 µM [rising, full curve, poor fit]"
CCOc1cc(N)c(Cl)cc1C(=O)NCC1CN(Cc2ccc(F)cc2)CCO1 (stereo unspecified),AC50,[2],"0.224 µM [rising, full curve, poor fit]"
COc1cccc(CN2CCN(Cc3cccc4nonc34)CC2CCO)c1 (stereo unspecified),AC50,[1],"0.0112 µM [rising, full curve, poor fit]"
CCOc1ccc(S(=O)(=O)Nc2ccc3oc(C)c(C(=O)OC(C)C)c3c2)cc1,AC50,[1],"35.5 µM [falling, single point]"
CCOc1cc(-c2conc2N)cc(OCC)c1OCC,AC50,[2],"11.2 µM [rising, partial curve]"
CNC(=O)NC(=O)CSc1nc(-c2cccs2)c(C#N)c(=O)[nH]1,AC50,[1],"25.1 µM [falling, partial curve, poor fit]"
CN(CCc1ccccn1)C(=O)CCC1CCCN(C(=O)c2ccccn2)C1 (stereo unspecified),AC50,[2],"0.178 µM [falling, partial curve]"
C=C1C(=O)O[C@@H]2[C@H]3O[C@]3(C)CCC=C(C)CC[C@@H]12,AC50,[1],"7.08 µM [falling, full curve]"
same,AC50,[2],"7.08 µM [falling, partial curve]"
COc1cccc(N2CCN(Cc3nc(N)nc(N4CCCc5ccccc54)n3)CC2)c1,AC50,[1],"10 µM [falling, partial curve, poor fit]"
O=C1CCCCC1C(Nc1ccc(Br)cc1)c1ccccc1 (stereo unspecified),AC50,[2],"15.8 µM [rising, single point]"
NC(=O)[C@@H]1CCCNc2c(F)cc([N+](=O)[O-])cc2C(=O)N[C@@H](CO)C(=O)NCC(=O)N1,AC50,[1],"0.0891 µM [falling, full curve, poor fit]"
O=C(Nc1ccccc1)Nc1nc2ccccc2s1,AC50,[1],"35.5 µM [falling, single point]"
NC(=O)N[C@H]1NC(=O)NC1=O,AC50,[1],"0.00316 µM [falling, full curve, poor fit]"
CN(Cc1ccccc1)C(=O)COC(=O)c1cc(-c2ccc(Cl)s2)nc2ccccc12,AC50,[2],"35.5 µM [rising, single point]"
CCc1ccc(C(=O)COC(=O)c2n[nH]c3ccccc23)cc1,AC50,[1],"35.5 µM [falling, partial curve, poor fit]"
same,AC50,[2],"35.5 µM [falling, partial curve]"
CCN(CC)c1ccc(/C=N/NC(=O)Nc2ccccc2)cc1,AC50,[1],"14.1 µM [falling, single point]"
same,AC50,[2],"35.5 µM [falling, partial curve]"
Cn1nnnc1SCC(=O)NNC(=O)c1ccc(Cl)cc1,AC50,[2],"0.501 µM [rising, partial curve]"
COc1ccc(-c2cn3nc(N4CCCC(C(=O)Nc5cccc(Cl)c5C)C4)sc3n2)cc1 (stereo unspecified),AC50,[1],"0.0224 µM [falling, full curve, poor fit]"
same,AC50,[2],"35.5 µM [falling, partial curve, poor fit]"
C[C@@H]1NC(=O)[C@H](CCCN=C(N)N)NC(=O)c2cc([N+](=O)[O-])cc(I)c2NCCC[C@@H](C(N)=O)NC1=O,AC50,[1],"0.00282 µM [falling, full curve, poor fit]"
CC(=O)c1cccc(NS(=O)(=O)c2ccc3c(c2)oc(=O)n3C)c1,AC50,[1],"12.6 µM [rising, partial curve, poor fit]"
same,AC50,[2],"15.8 µM [rising, partial curve]"
COc1ccc(C(C(=O)NCC2CCCO2)N(C(=O)CNC(=O)c2cccs2)c2ccccc2C)cc1OC (stereo unspecified),AC50,[1],"0.0112 µM [falling, full curve, poor fit]"
same,AC50,[2],"6.31 µM [falling, partial curve, poor fit]"
O=C(CNc1cccc([N+](=O)[O-])c1)N/N=C/c1ccc([N+](=O)[O-])o1,AC50,[2],"0.316 µM [rising, partial curve, poor fit]"
COc1cccc(-n2cc(C(=O)OCc3ccc(F)c(F)c3)c3ccccc3c2=O)c1,AC50,[1],"1 µM [falling, full curve, poor fit]"
same,AC50,[2],"1.12 µM [falling, full curve, poor fit]"
O=C(CSc1nnc(-c2c[nH]c3ccccc23)o1)N1c2ccccc2CCc2ccccc21,AC50,[2],"6.31 µM [rising, full curve]"
Cc1ccc(S(=O)(=O)N2CCN(Cc3nc4ccc(C)cc4o3)CC2)cc1,AC50,[1],"4.47 µM [rising, single point]"
same,AC50,[2],"6.31 µM [rising, partial curve, poor fit]"
CCn1c(SCC(=O)N/N=C/C=C/c2ccccc2[N+](=O)[O-])nnc1-c1ccc(Cl)cc1,AC50,[2],"35.5 µM [rising, single point]"
O=C(CS(=O)(=O)c1cccc2nsnc12)N1CCN(c2cccc(C(F)(F)F)c2)CC1,AC50,[1],"0.398 µM [falling, full curve, poor fit]"
same,AC50,[2],"0.0708 µM [falling, full curve, poor fit]"
NC(=O)N/N=C/c1ccc(-c2cccc(C(F)(F)F)c2)o1,AC50,[1],"0.0126 µM [rising, full curve]"
Cc1cc(-c2ccccc2)nc(Oc2ccc(C(C)(C)C)cc2)c1S(C)(=O)=O,AC50,[2],"28.2 µM [rising, single point]"
O=[N+]([O-])c1cccc(/C=N/n2c(-c3cccnc3)n[nH]c2=S)c1,AC50,[1],"25.1 µM [rising, single point]"
Oc1csc(Cc2nc(-c3ccc4ccccc4c3)cs2)n1,AC50,[1],"35.5 µM [falling, single point]"
same,AC50,[2],"25.1 µM [falling, partial curve]"
Cc1ccc(-c2cc(-c3nnc(SCC(=O)N(C)CCC#N)n3N)c3ccccc3n2)cc1,AC50,[2],"35.5 µM [rising, single point]"
Cc1ccc(S(=O)(=O)N2CCN(C(=O)c3ccc(OCc4c(C)noc4C)cc3)CC2)cc1,AC50,[2],"15.8 µM [rising, single point]"
COc1ccc(N(C)C(=O)c2cnc(N3CCN(c4ncccn4)CC3)c3ccccc23)cc1,AC50,[2],"4.47 µM [rising, full curve, poor fit]"
COc1cccc(CN2CCNC(=O)C2CC(=O)NCCc2nc(C)c(C)s2)c1OC (stereo unspecified),AC50,[2],"25.1 µM [falling, partial curve, poor fit]"
CCN(CC)c1ccc2c(c1)oc(=O)c1c(Cl)cc(=O)oc12,AC50,[1],"11.2 µM [falling, partial curve, poor fit]"
CN(CCOc1ccc(C[C@H](Nc2ccccc2C(=O)c2ccccc2)C(=O)O)cc1)c1ccccn1,AC50,[1],"5.62 µM [falling, partial curve]"
same,AC50,[2],"5.62 µM [falling, single point]"
Cc1nc(SC(C)C(=O)Nc2ccccc2Cl)cc(-c2ccccc2)n1 (stereo unspecified),AC50,[2],"6.31 µM [rising, full curve]"
COC(=O)Cc1ccc(NC(=S)NCCC(C)C)cc1,AC50,[2],"11.2 µM [rising, single point]"
COc1ccc(N2CCN(Cc3cccn3-c3nnc(N4CCN(C5CCCCC5)CC4)s3)CC2)cc1,AC50,[1],"20 µM [falling, partial curve, poor fit]"
COc1cc2c(cc1OC)CN(C(=O)NS(=O)(=O)c1ccc(C)cc1)CC2,AC50,[1],"7.08 µM [rising, partial curve, poor fit]"
COc1cccc(-c2nc(N3CCCCC3C)c3ccccc3n2)c1O (stereo unspecified),AC50,[1],"14.1 µM [rising, single point]"
same,AC50,[2],"20 µM [rising, partial curve]"
CC1CCN(c2cc(N3CCN(C(=O)c4ccc(F)c(F)c4)CC3)c([N+](=O)[O-])cc2F)CC1,AC50,[1],"28.2 µM [rising, single point]"
same,AC50,[2],"35.5 µM [rising, single point]"
COC(=O)c1ccc(CSc2ccccc2C)o1,AC50,[1],"11.2 µM [rising, single point]"
same,AC50,[2],"5.01 µM [rising, full curve]"
Cc1ccc(C2(C(F)(F)F)NC(=O)N3N=C4CCCCCN4C3=C2C#N)cc1 (stereo unspecified),AC50,[1],"0.0891 µM [rising, full curve, poor fit]"
Cc1ccc(S(=O)(=O)CCSC(=N)N)cc1,AC50,[2],"35.5 µM [rising, single point]"
COc1ccc(CNC(=O)C2CSCCS2)cc1 (stereo unspecified),AC50,[1],"0.708 µM [falling, full curve]"
same,AC50,[2],"0.631 µM [falling, full curve]"

# 22 entries from above in another layout:
compound | measurement | setting | value
COc1ccc(-c2cc(C(F)(F)F)n3ncc(C(=O)Nc4c(C)n(C)n(-c5ccccc5)c4=O)c3n2)cc1 | AC50 | [2] | 0.794 µM [falling, full curve, poor fit]
Cc1cccc(Nc2ccccc2C(=O)O)c1C | AC50 | [1] | 1.26 µM [falling, full curve, poor fit]
Cc1ccc(NC(=O)c2nn(C34CC5CC(CC(C5)C3)C4)cc2[N+](=O)[O-])cc1 | AC50 | [1] | 7.08 µM [rising, partial curve, poor fit]
CNC(=O)NC(=O)CSc1nc(-c2cccs2)c(C#N)c(=O)[nH]1 | AC50 | [1] | 25.1 µM [falling, partial curve, poor fit]
CN(CCc1ccccn1)C(=O)CCC1CCCN(C(=O)c2ccccn2)C1 (stereo unspecified) | AC50 | [2] | 0.178 µM [falling, partial curve]
O=C1CCCCC1C(Nc1ccc(Br)cc1)c1ccccc1 (stereo unspecified) | AC50 | [2] | 15.8 µM [rising, single point]
NC(=O)[C@@H]1CCCNc2c(F)cc([N+](=O)[O-])cc2C(=O)N[C@@H](CO)C(=O)NCC(=O)N1 | AC50 | [1] | 0.0891 µM [falling, full curve, poor fit]
O=C(Nc1ccccc1)Nc1nc2ccccc2s1 | AC50 | [1] | 35.5 µM [falling, single point]
CCN(CC)c1ccc(/C=N/NC(=O)Nc2ccccc2)cc1 | AC50 | [1] | 14.1 µM [falling, single point]
COc1ccc(-c2cn3nc(N4CCCC(C(=O)Nc5cccc(Cl)c5C)C4)sc3n2)cc1 (stereo unspecified) | AC50 | [2] | 35.5 µM [falling, partial curve, poor fit]
CC(=O)c1cccc(NS(=O)(=O)c2ccc3c(c2)oc(=O)n3C)c1 | AC50 | [1] | 12.6 µM [rising, partial curve, poor fit]
COc1cccc(-n2cc(C(=O)OCc3ccc(F)c(F)c3)c3ccccc3c2=O)c1 | AC50 | [2] | 1.12 µM [falling, full curve, poor fit]
O=C(CSc1nnc(-c2c[nH]c3ccccc23)o1)N1c2ccccc2CCc2ccccc21 | AC50 | [2] | 6.31 µM [rising, full curve]
CCn1c(SCC(=O)N/N=C/C=C/c2ccccc2[N+](=O)[O-])nnc1-c1ccc(Cl)cc1 | AC50 | [2] | 35.5 µM [rising, single point]
NC(=O)N/N=C/c1ccc(-c2cccc(C(F)(F)F)c2)o1 | AC50 | [1] | 0.0126 µM [rising, full curve]
O=[N+]([O-])c1cccc(/C=N/n2c(-c3cccnc3)n[nH]c2=S)c1 | AC50 | [1] | 25.1 µM [rising, single point]
Oc1csc(Cc2nc(-c3ccc4ccccc4c3)cs2)n1 | AC50 | [1] | 35.5 µM [falling, single point]
COc1ccc(N(C)C(=O)c2cnc(N3CCN(c4ncccn4)CC3)c3ccccc23)cc1 | AC50 | [2] | 4.47 µM [rising, full curve, poor fit]
COC(=O)Cc1ccc(NC(=S)NCCC(C)C)cc1 | AC50 | [2] | 11.2 µM [rising, single point]
COc1cc2c(cc1OC)CN(C(=O)NS(=O)(=O)c1ccc(C)cc1)CC2 | AC50 | [1] | 7.08 µM [rising, partial curve, poor fit]
COc1ccc(CNC(=O)C2CSCCS2)cc1 (stereo unspecified) | AC50 | [1] | 0.708 µM [falling, full curve]
same | AC50 | [2] | 0.631 µM [falling, full curve]
